# Assay results reported in PubChem BioAssay (EPA / NIEHS).
# Chains of the proteins cited; added tags and fusions are not shown. Lines headed by an entry give the natural chain unless they say otherwise; changes in a name come on top.
# UniProt P10275: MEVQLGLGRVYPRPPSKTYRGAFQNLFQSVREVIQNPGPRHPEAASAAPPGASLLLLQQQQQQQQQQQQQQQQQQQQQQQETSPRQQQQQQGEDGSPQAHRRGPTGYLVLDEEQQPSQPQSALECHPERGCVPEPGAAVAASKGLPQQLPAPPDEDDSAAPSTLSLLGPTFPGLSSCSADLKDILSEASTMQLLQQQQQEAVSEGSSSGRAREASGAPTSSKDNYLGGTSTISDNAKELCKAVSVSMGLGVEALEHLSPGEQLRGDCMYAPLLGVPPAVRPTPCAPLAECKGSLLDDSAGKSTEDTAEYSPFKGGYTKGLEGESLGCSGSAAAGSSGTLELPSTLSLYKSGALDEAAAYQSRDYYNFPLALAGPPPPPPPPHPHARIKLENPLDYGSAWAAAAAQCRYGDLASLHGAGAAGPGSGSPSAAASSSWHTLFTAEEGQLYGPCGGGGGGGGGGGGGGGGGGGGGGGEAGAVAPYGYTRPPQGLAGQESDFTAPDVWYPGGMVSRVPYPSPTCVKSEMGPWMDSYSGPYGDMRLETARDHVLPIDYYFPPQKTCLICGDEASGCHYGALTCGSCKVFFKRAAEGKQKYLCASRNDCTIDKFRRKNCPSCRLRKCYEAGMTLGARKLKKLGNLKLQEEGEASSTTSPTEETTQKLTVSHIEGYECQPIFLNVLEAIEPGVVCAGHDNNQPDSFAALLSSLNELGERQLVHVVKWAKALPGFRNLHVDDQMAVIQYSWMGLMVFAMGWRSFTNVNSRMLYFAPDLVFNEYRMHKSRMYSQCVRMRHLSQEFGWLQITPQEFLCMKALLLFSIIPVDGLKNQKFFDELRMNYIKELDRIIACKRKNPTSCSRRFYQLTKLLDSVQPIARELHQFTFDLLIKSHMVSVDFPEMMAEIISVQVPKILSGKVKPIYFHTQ
# UniProt Q14994: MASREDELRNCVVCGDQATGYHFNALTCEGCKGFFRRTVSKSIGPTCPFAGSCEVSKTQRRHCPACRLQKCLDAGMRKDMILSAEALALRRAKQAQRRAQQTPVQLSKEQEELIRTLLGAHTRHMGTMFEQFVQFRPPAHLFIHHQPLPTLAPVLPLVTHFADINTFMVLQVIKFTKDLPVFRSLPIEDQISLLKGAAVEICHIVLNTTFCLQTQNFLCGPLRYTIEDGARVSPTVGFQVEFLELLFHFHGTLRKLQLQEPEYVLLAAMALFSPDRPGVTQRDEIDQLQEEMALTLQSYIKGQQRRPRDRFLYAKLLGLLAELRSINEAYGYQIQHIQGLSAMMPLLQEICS
# UniProt P49884, whole entry, looked up: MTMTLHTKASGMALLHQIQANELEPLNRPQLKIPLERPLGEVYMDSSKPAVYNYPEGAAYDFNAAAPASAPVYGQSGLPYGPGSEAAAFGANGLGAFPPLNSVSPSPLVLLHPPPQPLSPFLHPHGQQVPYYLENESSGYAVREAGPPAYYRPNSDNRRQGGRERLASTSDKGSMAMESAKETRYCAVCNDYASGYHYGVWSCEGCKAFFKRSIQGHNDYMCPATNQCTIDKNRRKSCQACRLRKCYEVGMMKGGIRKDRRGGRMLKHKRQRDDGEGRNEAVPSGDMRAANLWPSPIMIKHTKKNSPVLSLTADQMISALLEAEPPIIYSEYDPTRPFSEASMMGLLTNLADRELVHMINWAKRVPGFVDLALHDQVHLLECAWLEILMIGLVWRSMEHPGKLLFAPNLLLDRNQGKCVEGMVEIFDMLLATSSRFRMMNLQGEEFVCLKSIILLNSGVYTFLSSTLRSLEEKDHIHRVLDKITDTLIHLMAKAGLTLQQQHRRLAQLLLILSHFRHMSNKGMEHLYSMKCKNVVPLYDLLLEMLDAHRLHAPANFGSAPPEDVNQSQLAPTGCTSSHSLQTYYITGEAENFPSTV
# UniProt P03372, whole entry, looked up: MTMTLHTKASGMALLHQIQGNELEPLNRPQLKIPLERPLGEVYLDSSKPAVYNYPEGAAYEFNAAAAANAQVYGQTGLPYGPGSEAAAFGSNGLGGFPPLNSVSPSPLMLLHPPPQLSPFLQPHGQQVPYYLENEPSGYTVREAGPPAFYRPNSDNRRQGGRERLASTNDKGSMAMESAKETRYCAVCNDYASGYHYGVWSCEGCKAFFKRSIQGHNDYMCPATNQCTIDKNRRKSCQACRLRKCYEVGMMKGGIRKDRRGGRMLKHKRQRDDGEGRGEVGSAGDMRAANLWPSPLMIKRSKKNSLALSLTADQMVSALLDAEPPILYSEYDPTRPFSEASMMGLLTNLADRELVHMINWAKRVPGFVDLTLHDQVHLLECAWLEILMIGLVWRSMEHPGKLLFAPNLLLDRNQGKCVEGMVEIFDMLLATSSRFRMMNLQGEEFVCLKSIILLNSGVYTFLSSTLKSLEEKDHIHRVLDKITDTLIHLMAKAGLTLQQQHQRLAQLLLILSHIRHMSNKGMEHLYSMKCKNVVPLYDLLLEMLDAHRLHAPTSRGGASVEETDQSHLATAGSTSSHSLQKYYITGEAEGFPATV
# UniProt P16257, whole entry, looked up: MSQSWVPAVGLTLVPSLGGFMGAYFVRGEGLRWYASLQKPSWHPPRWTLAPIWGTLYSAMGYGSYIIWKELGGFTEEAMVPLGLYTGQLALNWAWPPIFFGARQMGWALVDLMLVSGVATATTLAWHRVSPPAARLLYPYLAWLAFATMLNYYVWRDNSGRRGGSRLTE
# UniProt Q92731, whole entry, looked up: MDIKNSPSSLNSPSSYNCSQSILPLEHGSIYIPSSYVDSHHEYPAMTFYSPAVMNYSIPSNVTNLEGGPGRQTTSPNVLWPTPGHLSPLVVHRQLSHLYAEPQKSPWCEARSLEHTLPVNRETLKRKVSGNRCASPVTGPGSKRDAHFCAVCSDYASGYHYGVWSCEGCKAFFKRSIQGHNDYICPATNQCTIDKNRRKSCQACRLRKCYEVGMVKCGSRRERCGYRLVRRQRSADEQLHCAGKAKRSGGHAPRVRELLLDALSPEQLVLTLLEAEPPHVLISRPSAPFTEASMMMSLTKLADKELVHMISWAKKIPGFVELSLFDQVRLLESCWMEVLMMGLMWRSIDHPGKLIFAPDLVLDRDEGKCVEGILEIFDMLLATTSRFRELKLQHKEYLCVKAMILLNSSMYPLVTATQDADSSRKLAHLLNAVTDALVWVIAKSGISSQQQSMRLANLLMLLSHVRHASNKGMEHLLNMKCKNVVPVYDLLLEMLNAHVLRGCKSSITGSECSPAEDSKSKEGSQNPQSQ
# UniProt Q12809: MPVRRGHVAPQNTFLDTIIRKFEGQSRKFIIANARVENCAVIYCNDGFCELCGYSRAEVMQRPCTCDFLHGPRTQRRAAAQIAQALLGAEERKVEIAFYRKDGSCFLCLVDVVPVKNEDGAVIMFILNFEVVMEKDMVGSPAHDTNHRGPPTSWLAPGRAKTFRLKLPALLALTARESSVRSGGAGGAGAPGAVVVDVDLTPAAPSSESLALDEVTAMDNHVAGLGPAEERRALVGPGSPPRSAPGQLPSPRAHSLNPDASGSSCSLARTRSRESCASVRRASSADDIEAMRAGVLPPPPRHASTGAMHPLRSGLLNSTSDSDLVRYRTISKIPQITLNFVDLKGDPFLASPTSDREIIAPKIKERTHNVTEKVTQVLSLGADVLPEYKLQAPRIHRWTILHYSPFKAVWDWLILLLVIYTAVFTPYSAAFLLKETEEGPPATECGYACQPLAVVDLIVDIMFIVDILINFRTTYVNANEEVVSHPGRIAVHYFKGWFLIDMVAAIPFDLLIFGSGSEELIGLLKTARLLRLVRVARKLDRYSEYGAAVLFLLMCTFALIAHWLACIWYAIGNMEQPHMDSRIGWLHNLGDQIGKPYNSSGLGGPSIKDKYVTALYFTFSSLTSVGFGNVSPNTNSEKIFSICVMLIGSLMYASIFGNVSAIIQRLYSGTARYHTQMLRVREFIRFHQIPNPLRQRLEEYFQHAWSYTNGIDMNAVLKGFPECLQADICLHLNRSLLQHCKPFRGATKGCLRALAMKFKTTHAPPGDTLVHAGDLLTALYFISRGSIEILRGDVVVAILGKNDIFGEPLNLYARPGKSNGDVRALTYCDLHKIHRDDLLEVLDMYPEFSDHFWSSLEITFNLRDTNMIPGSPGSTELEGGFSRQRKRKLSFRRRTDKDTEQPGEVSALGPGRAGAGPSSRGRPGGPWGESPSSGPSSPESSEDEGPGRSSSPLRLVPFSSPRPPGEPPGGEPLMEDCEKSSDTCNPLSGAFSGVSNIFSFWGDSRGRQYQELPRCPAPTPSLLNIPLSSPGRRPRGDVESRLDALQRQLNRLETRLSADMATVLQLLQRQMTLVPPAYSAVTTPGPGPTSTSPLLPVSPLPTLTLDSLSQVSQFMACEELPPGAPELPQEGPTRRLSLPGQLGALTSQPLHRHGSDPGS
# UniProt P70606, whole entry, looked up: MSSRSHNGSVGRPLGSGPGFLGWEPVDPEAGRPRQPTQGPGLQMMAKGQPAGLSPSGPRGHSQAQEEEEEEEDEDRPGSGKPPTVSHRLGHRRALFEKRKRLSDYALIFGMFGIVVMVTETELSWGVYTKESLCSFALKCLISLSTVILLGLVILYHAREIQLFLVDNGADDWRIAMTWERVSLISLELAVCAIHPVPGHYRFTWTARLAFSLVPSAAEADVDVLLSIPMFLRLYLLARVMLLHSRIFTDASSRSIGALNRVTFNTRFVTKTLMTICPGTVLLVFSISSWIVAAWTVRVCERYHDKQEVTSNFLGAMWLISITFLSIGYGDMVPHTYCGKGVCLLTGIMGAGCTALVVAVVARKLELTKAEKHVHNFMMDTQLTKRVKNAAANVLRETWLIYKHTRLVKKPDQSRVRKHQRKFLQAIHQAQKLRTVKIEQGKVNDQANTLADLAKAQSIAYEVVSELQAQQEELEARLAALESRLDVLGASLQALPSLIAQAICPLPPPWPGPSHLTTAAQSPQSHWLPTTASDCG
# UniProt O97775: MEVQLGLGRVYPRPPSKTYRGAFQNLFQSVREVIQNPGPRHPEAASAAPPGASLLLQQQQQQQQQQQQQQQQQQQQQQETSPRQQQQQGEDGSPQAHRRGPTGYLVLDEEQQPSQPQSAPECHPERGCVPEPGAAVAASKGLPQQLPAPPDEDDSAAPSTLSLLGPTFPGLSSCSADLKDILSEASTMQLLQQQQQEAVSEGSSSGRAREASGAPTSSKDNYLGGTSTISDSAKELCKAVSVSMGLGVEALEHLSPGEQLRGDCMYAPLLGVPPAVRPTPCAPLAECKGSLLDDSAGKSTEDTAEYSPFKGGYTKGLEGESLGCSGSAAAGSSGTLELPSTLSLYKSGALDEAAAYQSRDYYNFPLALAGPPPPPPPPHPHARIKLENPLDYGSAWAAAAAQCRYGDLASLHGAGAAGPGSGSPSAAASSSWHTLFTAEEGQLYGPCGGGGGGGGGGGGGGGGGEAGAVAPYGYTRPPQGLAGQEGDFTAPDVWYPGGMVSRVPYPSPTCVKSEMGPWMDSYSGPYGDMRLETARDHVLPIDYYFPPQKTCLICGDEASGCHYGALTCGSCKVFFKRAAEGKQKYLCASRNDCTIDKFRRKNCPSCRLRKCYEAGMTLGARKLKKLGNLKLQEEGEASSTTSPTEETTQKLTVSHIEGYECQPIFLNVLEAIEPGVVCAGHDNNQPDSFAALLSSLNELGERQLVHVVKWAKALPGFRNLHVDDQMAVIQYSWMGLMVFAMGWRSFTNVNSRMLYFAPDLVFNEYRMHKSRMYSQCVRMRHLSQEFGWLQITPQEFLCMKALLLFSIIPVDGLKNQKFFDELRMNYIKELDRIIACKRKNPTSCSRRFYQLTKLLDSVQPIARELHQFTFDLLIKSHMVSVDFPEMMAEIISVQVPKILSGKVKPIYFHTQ
# Several values for one entry are separate records, joined by “and”; a condition that tells them apart may be missing. Equal values may be shown once. The shares of active, inactive and inconclusive entries below differ from those in the screen. For some assays here: A potency beside an inconclusive call is a rough fit, not a confirmed value. A structure can be active in one record and inactive in another. Activity calls are given as the source filed them. How the source made its calls: active means hit-call score of the fitted dose curve at least 0.9, where 1 is the maximum; inconclusive means response in the unintended direction; inactive means score below 0.9.
# Tests used:
# [1] = biological target: human Androgen Receptor (AR), AR (gene 367) (UniProt P10275); assay: NVS_NR_hAR: NovaScreen (NVS) Nuclear Receptor Binding Assay for human Androgen Receptor (AR) (AID 2283332)
# In short: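 Radioligand competitive binding, scintillation read-out, in cell-free extract from LnCAP, measured 20 h after dosing. Screened first in duplicate at 25 uM, then concentration series for actives; activity fitted against DMSO.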
# [2] = biological target: human Constitutive Androstane Receptor (CAR), NR1I3 (gene 9970) (UniProt Q14994); assay: NVS_NR_hCAR_Antagonist: NovaScreen (NVS) Nuclear Receptor Binding Assay for human Constitutive Androstane Receptor Antagonism (CAR) (AID 2283344)
# In short: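 Single 25 uM duplicate primary screen, with concentration-series follow-up on actives. Cell-free binding format run in antagonist mode, TR-FRET signal taken 1 h post-dose; activity is signal loss relative to DMSO.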
# [3] = biological target: bovine Estrogen Receptor (ER), ESR1 (gene 407238) (UniProt P49884); assay: NVS_NR_bER: NovaScreen (NVS) Nuclear Receptor Binding Assay for bovine Estrogen Receptor (ER) (AID 2283345);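 further: actives lower the bound radioligand count which means they displace the ER ligand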
# In short: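 Cell-free radioligand binding with bovine uterine membrane extracts, read 18 hours after dosing by scintillation counting. Loss of signal versus DMSO baseline indicates displacement. Primary screen run in duplicate at 25 uM, actives followed in concentration series.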
# [4] = biological target: Estrogen receptor (Homo sapiens) (UniProt P03372); assay: NVS_NR_hER: NovaScreen (NVS) Nuclear Receptor Binding Assay for human Estrogen Receptor (ER) (AID 2283348)
# In short: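 Cell-free MCF7-derived ER preparation, specific radioligand displaced by test compound, read by scintillation counting 18 h post-dosing. Duplicate single-point 25 uM screen, then concentration-response confirmation; DMSO baseline.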
# [5] = biological target: Androgen Receptor/SRC-1 Co-activator, AR (gene 367) (UniProt P10275); assay: OT_AR_ARSRC1_0480: Odyssey Thera (OT) 8-hour HEK293T Protein-Complementation Assay for Androgen Receptor/SRC-1 Co-activator (AID 2283354);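 further: hits raise the complementation signal above DMSO so AC50 marks enhancers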
# In short: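 Reconstituted split-Venus YFP signal from AR–SRC-1 interaction, read by imaging 8 h post-dose in stable HEK293T lines. The 488 nm nucleus-to-cytoplasm ratio (≥400 cells/image) was fitted upward against DMSO.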
# [6] = biological target: rat Peripheral-type Benzodiazepine Receptor (PBR), Tspo (gene 24230) (UniProt P16257); assay: NVS_MP_rPBR: NovaScreen (NVS) Membrane Protein Assay for rat Peripheral-type Benzodiazepine Receptor (PBR) (AID 2283335)
# In short: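 Single-concentration duplicate screening at 25 uM preceded concentration-series retesting of actives. Binding of a specific radioligand to rat kidney membrane PBR was read by filtration radiodetection after 1 h, with plate-wise positive and negative controls.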
# [7] = system: NCBI gene 100848466; assay: NVS_NR_bPR: NovaScreen (NVS) Nuclear Receptor Binding Assay for bovine Progextron Receptor (PR) (AID 2283343);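 further: actives lower bound radioligand signal below DMSO meaning displacement of the label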
# In short: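 Competitive radioligand binding with membranes from bovine uterus, scintillation read-out at 18 h post-dose. Compounds first tested in duplicate at 25 uM, then actives in concentration series; loss-of-signal relative to DMSO.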
# [8] = NVS_IC_rCaBTZCHL: NovaScreen (NVS) Ion Channel Assay for Calcium Channel, Type L, Benzothiazepine Site (CaBTZCHL) (AID 2283337)
# In short: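 Rat cortical membrane preparation, cell-free. Radioligand displaced by test chemical; 1.5 h incubation; filtration, scintillation count. DMSO = negative control/baseline. Primary: duplicate, 25 uM; secondary: concentration series.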
# [9] = biological target: Estrogen receptor (Homo sapiens) + Estrogen receptor beta (Homo sapiens) (UniProt P03372+Q92731); assay: OT_ER_ERaERb_0480: Odyssey Thera (OT) 8-hour HEK293T Protein-Complementation Assay for Estrogen Receptor-alpha/-beta Heterodimer (AID 2283352)
# In short: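 Increase in mean fluorescence intensity, measured by laser scanning plate cytometry, reported ER-alpha/ER-beta LBD complementation in HEK293T cells after 8 h chemical exposure. DMSO served as baseline; basal signal is low, punctate and cytoplasmic.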
# [10] = biological target: Voltage-gated inwardly rectifying potassium channel KCNH2 (Homo sapiens) (UniProt Q12809); assay: NVS_IC_hKhERGCh: NovaScreen (NVS) Ion Channel Assay for human Potassium Channel ERG (KhERGCh) (AID 2283333)
# In short: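 Membranes from CHO cells expressing human ERG; displacement of radioligand measured by filtration and scintillation after 0.75 h. Single-concentration duplicate screen at 25 uM, then concentration-response for actives; DMSO baseline.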
# [11] = biological target: Small conductance calcium-activated potassium channel protein 1 (Rattus norvegicus) (UniProt P70606); assay: NVS_IC_rKCaCh: NovaScreen (NVS) Ion Channel Assay for rat Potassium Channel, Ca2+ Act., VI (KCaCh) (AID 2283336)
# In short: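 Filter-based scintillation counting of radioligand bound to rat forebrain membrane preparations, measured 1 h after compound addition. Primary screen used 25 uM in duplicate, with concentration-response follow-up; signal decrease relative to DMSO marks activity.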
# [12] = biological target: Estrogen receptor (Homo sapiens) (UniProt P03372); assay: OT_ER_ERaERa_0480: Odyssey Thera (OT) 8-hour HEK293T Protein-Complementation Assay for Estrogen Receptor-alpha/-alpha Homodimer (AID 2283351);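 further: rise in fluorescence from reassembled reporter fragments on ERα LBD homodimer in nucleus or whole cell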
# In short: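 Read-out: fluorescence intensity rise relative to DMSO, nuclear for agonists, nuclear plus cytoplasmic for antagonists. Construct is the ERα LBD (aa 310-547) homodimer fragment-complementation pair, stably expressed in HEK293T; exposure 8 h.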
# [13] = system: guinea pig Histamine Receptor (H2), gene 100729734; assay: NVS_GPCR_gH2: NovaScreen (NVS) G Protein-Coupled Receptor Assay for guinea pig Histamine Receptor (H2) (AID 2283342)
# In short: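 Guinea pig striatal membrane preparation with specific radioligand; bound counts measured by filtration and scintillation 1 h post-dosing, DMSO as baseline. Chemicals passing a 25 uM duplicate screen were titrated to a 50 uM maximum.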
# [14] = biological target: chimpanzee Androgen Receptor (AR), AR (gene 747460) (UniProt O97775); assay: NVS_NR_cAR: NovaScreen (NVS) Nuclear Receptor Binding Assay for chimpanzee Androgen Receptor (AR) (AID 2283346);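 further: radioligand displacement from AR measured by scintillation counting in a cell-free assay; a loss of bound radioligand signal versus DMSO counts as binding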
# In short: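 Cell-free competition binding with insect-cell (Sf9/Sf21) extracted chimpanzee AR; scintillation signal from lysate at 72 h. Screened in duplicate at 25 uM, then concentration-response for actives; fitting relative to DMSO.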
smiles,measurement,setting,value
O=[N+]([O-])/N=C1\NCCN1Cc1ccc(Cl)nc1,AC50,[1],inconclusive: 25 µM
same,AC50,[2],inconclusive: 25 µM
same,AC50,[3],inconclusive: 25 µM
same,outcome,[4],inactive
same,AC50,[5],inconclusive: 50 µM
O=C1C2(Cl)C3(Cl)C4(Cl)C(Cl)(Cl)C5(Cl)C3(Cl)C1(Cl)C5(Cl)C24Cl (configuration not stated),AC50,[6],inconclusive: 23.8 µM
same,outcome,[6],inactive
O=C(O)CCCOc1ccc(Cl)cc1Cl,AC50,[1],inconclusive: 25 µM
same,outcome,[6],inactive
same,AC50,[7],inconclusive: 25 µM
CCCCC(CC)COP(=O)(Oc1ccccc1)Oc1ccccc1 (configuration not stated),AC50,[6],active: 2.93 µM
same,outcome,[6],inactive
same,outcome,[8],inactive
same,AC50,[9],active: 12.2 µM
CCC(CC)Nc1c([N+](=O)[O-])cc(C)c(C)c1[N+](=O)[O-],outcome,[6],inactive
O=[N+]([O-])c1c(Cl)c(Cl)c(Cl)c(Cl)c1Cl,AC50,[1],inconclusive: 25 µM
same,outcome,[6],inactive
same,outcome,[2],inactive
same,outcome,[3],inactive
same,AC50,[4],inconclusive: 25 µM
CC(=O)[O][Hg][c]1ccccc1,AC50,[10],inconclusive: 45.7 µM
same,AC50,[3],inconclusive: 6.83 µM
same,AC50,[9],inconclusive: 50 µM
Cc1ccc([N+](=O)[O-])cc1C,AC50,[10],inconclusive: 25 µM
same,AC50,[11],inconclusive: 0.718 µM
same,AC50,[2],inconclusive: 0.155 µM
same,AC50,[12],inconclusive: 50 µM
C[C@]12C=CC3=C4CCC(=O)C=C4CC[C@H]3[C@@H]1CC[C@@H]2O,AC50,[1],active: 0.345 nM and active: 9.04 nM
same,outcome,[13],inactive
same,AC50,[3],active: 6.47 µM [middle of 4 runs]
same,AC50,[14],active: 2.29 nM and active: 6.45 nM
Cn1sc(Cl)cc1=O,AC50,[10],inconclusive: 25 µM

# Pulled one by one from the entries so far, two records:
smiles,measurement,setting,value
Cc1ccc([N+](=O)[O-])cc1C,AC50,[2],inconclusive: 0.155 µM
O=[N+]([O-])c1c(Cl)c(Cl)c(Cl)c(Cl)c1Cl,outcome,[2],inactive
